No constants are given. Whether binding was seen depends on the method and setting. Binding seen in cells or lysates may run through a third protein. Some entries that bind do so weakly or less than the wild type. Sequences can lack the tags named with a protein.
Tests used:
Assay in all cases: co-IP; HT1080 cells stably expressing proHB-EGF, proTGF-α, proAR or proEPR, transiently transfected with FLAG-PLZF; 100 nM TPA for 1 h; IP with anti-EGFR ligand-CTF antibodies, blot with anti-FLAG
[1] = molecular target: proTGF-α stably expressed in HT1080 cells (UniProt P01135)
[2] = molecular target: proHB-EGF stably expressed in HT1080 cells (UniProt Q99075)
[3] = molecular target: T1, proEPR (pro-epiregulin) stably expressed in HT1080 cells (UniProt O14944)
T1 sequence: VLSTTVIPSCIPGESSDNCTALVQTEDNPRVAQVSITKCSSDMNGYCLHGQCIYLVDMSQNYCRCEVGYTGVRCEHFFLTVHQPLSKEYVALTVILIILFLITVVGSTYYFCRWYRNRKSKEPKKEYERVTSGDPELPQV

By UniProt entry, the sequences of proteins in these tests, tags left out. Residues count along the entry.
UniProt P01135, residues 24-160: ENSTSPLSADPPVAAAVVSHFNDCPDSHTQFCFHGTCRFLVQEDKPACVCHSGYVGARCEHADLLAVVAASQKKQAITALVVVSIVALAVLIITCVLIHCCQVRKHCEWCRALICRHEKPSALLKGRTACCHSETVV
UniProt Q99075, residues 20-208: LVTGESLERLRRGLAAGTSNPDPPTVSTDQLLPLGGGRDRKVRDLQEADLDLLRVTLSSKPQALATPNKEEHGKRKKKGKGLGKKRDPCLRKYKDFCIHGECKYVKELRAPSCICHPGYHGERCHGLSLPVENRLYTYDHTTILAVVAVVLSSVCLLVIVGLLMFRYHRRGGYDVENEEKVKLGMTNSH

Measured: binding

B1: FLAG-tagged full length PLZF (promyelocytic leukemia zinc finger protein) (protein, UniProt Q05516 1-673)
chain: MDLTKMGMIQLQNPSHPTGLLCKANQMRLAGTLCDVVIMVDSQEFHAHRTVLACTSKMFEILFHRNSQHYTLDFLSPKTFQQILEYAYTATLQAKAEDLDDLLYAAEILEIEYLEEQCLKMLETIQASDDNDTEATMADGGAEEEEDRKARYLKNIFISKHSSEESGYASVAGQSLPGPMVDQSPSVSTSFGLSAMSPTKAAVDSLMTIGQSLLQGTLQPPAGPEEPTLAGGGRHPGVAEVKTEMMQVDEVPSQDSPGAAESSISGGMGDKVEERGKEGPGTPTRSSVITSARELHYGREESAEQVPPPAEAGQAPTGRPEHPAPPPEKHLGIYSVLPNHKADAVLSMPSSVTSGLHVQPALAVSMDFSTYGGLLPQGFIQRELFSKLGELAVGMKSESRTIGEQCSVCGVELPDNEAVEQHRKLHSGMKTYGCELCGKRFLDSLRLRMHLLAHSAGAKAFVCDQCGAQFSKEDALETHRQTHTGTDMAVFCLLCGKRFQAQSALQQHMEVHAGVRSYICSECNRTFPSHTALKRHLRSHTGDHPYECEFCGSCFRDESTLKSHKRIHTGEKPYECNGCGKKFSLKHQLETHYRVHTGEKPFECKLCHQRSRDYSAMIKHLRTHNGASPYQCTICTEYCPSLSSMQKHMKGHKPEEIPPDWRIEKTYLYLCYV
binds: all assays above
